Data taken from patent publication US7585967.
These are yes or no findings as the source states them, for the method shown. Some results given as binding are weak or reduced against the parent protein; the word gives no strength. Where a sequence is shown, tags or fusion partners need not be part of it.

Protein sequences, listed by entry. Tags and fused reporters are not part of them. Lines headed by an entry give the natural chain unless they say otherwise; changes in a name come on top.
UniProt P52799: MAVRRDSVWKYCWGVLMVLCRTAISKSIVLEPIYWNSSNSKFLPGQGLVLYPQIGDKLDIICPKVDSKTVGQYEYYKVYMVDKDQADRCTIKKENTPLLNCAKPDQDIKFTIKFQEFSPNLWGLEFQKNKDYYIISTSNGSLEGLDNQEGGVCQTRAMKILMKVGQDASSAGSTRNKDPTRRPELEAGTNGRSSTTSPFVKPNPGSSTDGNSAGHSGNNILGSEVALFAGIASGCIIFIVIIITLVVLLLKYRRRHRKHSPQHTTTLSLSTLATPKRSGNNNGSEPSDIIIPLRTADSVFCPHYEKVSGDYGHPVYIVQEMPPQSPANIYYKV

Target: ephrin B2 on tumor cells of human Kaposi's sarcoma biopsy sections (human) (UniProt P52799)
Assay: staining of KS biopsy section with AP fusion

B1: B4EC-AP reagent (protein fusion of EphB4 ectodomain with placental alkaline phosphatase) (receptor, not shown: large carriers)
chain: LEETLLNTKLETADLKWVTFPQVDGQWEELSGLDEEQHSVRTYEVCDVQRAPGQAHWLRTGWVPRRGAVHVYATLRFTMLECLSLPRAGRSCKETFTVFYYESDADTATALTPAWMENPYIKVDTVAAEHLTRKRPGAEATGKVNVKTLRLGPLSKAGFYLAFQDQGACMALLSLHLFYKKCAQLTVNLTRFPETVPRELVVPVAGSCVVDAVPAPGPSPSLYCREDGQWAEQPVTGCSCAPGFEAAEGNTKCRACAQGTFKPLSGEGSCQPCPANSHSNTIGSAVCQCRVGYFRARTDPRGAPCTTPPSAPRSVVSRLNGSSLHLEWSAPLESGGREDLTYALRCRECRPGGSCAPCGGDLTFDPGPRDLVEPWVVVRGLRPDFTYTFEVTALNGVSSLATGPVPFEPVNVTTDREVPPAVSDIRVTRSSPSSLSLAWAVPRAPSGAVLDYEVKYHEKGAEGPSSVRFLKTSENRAELRGLKRGASYLVQVRARSEAGYGPFGQEHHSQTQLDESEGWREQLA
In the case of B1, the binding is reported as “binds”.
